The source of these data is paper PMC8864472.

Protein sequences, listed by entry. Tags and fused reporters are not part of them. Residues count along the entry.
UniProt Q8IY17: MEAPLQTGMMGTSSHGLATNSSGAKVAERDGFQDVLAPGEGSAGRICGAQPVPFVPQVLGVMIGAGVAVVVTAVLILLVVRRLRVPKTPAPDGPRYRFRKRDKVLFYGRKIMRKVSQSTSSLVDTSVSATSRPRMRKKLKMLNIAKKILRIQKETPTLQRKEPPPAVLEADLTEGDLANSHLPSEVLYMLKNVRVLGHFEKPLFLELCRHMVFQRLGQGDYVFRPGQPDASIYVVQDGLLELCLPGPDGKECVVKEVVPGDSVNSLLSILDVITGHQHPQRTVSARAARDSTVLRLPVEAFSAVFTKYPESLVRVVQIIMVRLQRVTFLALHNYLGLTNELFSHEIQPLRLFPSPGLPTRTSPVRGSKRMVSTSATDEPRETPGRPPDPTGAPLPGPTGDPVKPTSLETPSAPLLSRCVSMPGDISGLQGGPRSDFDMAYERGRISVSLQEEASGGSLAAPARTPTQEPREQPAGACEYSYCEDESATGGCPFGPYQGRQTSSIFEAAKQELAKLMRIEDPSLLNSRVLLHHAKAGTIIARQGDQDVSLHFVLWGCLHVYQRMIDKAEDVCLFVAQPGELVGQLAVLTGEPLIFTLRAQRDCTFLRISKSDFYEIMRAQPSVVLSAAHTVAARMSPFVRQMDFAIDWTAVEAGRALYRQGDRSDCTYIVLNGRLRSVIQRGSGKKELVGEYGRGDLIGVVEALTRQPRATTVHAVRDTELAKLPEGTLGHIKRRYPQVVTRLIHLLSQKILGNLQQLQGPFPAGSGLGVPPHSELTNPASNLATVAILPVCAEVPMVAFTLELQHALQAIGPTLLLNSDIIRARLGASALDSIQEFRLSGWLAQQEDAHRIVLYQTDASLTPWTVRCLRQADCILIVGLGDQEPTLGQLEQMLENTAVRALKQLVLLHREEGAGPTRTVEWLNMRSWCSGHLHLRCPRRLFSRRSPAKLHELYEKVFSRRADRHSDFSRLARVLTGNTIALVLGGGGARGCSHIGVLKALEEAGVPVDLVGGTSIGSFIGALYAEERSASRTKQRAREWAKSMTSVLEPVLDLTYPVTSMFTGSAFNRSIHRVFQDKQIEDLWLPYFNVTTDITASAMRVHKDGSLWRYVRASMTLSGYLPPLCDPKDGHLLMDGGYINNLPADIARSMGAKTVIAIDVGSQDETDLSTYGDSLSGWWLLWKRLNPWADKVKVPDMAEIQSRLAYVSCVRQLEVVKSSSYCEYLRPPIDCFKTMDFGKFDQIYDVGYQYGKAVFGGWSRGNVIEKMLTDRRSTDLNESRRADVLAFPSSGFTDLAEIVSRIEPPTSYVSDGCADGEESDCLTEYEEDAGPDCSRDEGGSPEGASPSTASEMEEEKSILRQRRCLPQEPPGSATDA
UniProt P11021, residues 19-654: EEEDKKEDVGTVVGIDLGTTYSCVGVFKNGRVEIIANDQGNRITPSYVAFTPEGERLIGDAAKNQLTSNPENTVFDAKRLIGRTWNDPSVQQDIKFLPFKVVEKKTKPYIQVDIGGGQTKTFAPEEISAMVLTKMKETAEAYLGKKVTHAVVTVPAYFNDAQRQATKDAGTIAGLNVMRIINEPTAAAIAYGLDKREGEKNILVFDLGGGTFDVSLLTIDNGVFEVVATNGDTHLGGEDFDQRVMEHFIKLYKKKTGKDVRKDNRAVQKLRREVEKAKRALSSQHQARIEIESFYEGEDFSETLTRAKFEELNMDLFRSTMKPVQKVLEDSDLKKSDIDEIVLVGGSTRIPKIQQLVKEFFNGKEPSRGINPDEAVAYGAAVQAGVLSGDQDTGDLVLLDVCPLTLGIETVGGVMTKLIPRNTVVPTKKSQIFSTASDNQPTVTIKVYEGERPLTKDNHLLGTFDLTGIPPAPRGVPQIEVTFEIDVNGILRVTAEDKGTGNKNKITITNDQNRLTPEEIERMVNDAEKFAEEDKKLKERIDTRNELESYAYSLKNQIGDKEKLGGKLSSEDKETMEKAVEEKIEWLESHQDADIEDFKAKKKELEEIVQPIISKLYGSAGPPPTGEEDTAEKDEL
UniProt Q99805, residues 29-663: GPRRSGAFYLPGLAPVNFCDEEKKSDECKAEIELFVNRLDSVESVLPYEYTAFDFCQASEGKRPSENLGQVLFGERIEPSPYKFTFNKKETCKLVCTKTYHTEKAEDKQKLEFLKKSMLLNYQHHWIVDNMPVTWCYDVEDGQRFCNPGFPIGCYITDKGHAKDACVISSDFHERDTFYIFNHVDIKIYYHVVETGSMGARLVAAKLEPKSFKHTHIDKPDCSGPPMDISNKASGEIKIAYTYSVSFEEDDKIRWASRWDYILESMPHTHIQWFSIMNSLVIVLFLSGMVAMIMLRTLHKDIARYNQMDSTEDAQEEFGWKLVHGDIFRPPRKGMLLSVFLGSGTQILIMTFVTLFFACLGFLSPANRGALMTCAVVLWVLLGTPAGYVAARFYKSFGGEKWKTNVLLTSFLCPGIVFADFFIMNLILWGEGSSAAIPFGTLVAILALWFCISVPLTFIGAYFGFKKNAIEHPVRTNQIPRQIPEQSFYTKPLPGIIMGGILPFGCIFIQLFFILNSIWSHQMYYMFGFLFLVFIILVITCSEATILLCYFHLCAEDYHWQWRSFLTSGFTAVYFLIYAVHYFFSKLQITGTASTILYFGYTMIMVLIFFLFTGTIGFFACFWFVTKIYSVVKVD
UniProt P30101, residues 25-505: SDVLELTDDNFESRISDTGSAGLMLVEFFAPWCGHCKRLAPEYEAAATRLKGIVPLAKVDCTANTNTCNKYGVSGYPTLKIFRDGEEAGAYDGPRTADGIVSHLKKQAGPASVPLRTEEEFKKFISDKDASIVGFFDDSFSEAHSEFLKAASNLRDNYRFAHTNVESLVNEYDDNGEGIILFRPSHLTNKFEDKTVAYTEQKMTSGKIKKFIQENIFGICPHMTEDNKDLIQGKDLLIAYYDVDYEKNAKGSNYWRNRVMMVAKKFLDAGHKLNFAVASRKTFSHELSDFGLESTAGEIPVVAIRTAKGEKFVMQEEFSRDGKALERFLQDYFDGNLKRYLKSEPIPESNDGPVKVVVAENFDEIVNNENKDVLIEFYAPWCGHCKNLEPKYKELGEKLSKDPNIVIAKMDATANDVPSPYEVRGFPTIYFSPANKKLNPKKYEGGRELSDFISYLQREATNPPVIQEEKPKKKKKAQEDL
UniProt Q92544, residues 24-642: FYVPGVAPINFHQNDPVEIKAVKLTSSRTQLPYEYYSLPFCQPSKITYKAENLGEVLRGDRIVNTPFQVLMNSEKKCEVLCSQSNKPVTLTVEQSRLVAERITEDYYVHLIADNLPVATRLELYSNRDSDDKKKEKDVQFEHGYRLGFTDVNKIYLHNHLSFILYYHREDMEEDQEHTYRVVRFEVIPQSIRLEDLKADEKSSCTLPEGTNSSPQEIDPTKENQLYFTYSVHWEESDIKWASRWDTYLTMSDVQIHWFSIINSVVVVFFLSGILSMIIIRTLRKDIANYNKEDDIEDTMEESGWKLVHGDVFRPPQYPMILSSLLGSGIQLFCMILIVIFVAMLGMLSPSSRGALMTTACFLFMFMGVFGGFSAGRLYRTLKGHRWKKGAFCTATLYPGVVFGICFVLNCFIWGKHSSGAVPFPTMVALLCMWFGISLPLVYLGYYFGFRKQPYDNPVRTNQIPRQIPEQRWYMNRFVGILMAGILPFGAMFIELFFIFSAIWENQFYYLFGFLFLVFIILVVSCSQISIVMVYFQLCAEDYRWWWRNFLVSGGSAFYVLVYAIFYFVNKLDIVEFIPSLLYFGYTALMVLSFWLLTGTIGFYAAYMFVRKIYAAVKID
UniProt O15321, residues 28-606: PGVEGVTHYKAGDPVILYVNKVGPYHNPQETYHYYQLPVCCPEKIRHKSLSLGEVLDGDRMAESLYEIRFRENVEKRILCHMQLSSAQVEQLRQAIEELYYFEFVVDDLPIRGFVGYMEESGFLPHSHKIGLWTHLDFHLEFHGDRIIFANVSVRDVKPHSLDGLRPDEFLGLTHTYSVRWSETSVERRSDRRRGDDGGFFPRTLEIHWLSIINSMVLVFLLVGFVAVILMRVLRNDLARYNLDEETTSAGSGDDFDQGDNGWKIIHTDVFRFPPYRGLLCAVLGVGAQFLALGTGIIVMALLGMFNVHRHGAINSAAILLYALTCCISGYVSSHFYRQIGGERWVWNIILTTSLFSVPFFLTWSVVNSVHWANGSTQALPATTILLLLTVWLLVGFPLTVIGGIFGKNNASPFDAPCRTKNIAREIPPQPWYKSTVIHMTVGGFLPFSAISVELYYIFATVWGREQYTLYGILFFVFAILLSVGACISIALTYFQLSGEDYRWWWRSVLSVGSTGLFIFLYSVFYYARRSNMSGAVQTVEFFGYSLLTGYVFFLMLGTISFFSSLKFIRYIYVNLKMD

Common to all, as to assay: affinity purification with mass spectrometry; TAP-MS: C-terminal SFB-tagged PLD bait from stable HEK293A cells, lysed in NETN buffer (100 mM NaCl, 20 mM Tris-HCl pH 8.0, 0.5 mM EDTA, 0.5% Nonidet P-40), streptavidin beads, biotin elution, S protein beads, 4 °C; HCIP: SAINT score at least 0.8 and raw spectra count at least 2
The target of one assay is T1, PLD3 (human) (UniProt Q8IV08).
T1 sequence: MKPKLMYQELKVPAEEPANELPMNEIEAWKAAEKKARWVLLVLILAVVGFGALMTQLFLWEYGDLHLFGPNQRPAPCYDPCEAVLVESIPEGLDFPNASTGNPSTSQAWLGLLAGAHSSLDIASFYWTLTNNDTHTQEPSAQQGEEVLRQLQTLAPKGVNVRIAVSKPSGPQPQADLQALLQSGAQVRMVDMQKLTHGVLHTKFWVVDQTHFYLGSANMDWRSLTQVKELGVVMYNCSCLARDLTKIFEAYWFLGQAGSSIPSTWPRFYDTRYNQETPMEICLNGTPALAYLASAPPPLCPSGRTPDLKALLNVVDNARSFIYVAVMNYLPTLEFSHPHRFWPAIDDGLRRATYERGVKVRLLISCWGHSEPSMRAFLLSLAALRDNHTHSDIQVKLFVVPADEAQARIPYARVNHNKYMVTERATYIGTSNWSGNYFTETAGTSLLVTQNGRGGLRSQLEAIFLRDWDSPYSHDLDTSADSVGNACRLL

The target of another assay is T2, PLD6 (human) (UniProt Q8N2A8).
T2 sequence: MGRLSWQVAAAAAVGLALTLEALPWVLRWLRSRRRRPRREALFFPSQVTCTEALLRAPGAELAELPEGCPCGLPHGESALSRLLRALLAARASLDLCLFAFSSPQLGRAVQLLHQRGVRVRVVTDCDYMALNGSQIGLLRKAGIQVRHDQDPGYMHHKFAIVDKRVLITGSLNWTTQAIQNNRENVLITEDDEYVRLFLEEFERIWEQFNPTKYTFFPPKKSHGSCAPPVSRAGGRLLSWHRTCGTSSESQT

The next assay has as its target T3, PLD4 (human) (UniProt Q96BZ4).
T3 sequence: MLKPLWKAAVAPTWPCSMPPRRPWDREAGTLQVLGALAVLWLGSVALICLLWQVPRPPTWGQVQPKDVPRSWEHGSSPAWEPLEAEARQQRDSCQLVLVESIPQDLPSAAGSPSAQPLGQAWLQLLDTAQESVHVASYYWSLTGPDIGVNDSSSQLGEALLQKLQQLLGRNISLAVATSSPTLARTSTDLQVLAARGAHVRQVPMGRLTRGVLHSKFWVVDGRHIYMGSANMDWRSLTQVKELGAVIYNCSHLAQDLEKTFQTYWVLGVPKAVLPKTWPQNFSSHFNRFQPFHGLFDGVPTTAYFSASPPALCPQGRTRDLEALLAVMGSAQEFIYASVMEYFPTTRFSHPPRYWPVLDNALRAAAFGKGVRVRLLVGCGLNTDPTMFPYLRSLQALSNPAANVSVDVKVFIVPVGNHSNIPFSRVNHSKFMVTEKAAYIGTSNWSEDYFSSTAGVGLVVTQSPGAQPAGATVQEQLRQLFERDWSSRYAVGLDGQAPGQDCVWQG

Results are given in words; binding and its absence hold for the method and conditions named. In cells and extracts the contact can be indirect. Here binding means that the protein was enriched with, or labelled near, the bait; the list need not be complete.

As to PNPLA6 (from UniProt Q8IY17 1-1375), the binding entry with PLD3 (human) is given as “binds”. Turning to HSPA5 (from UniProt P11021 19-654), the binding result in the assay with PLD6 (human) is recorded as “binds”. Turning to TM9SF2 (from UniProt Q99805 29-663), the binding result in the assay with PLD4 (human) and in the assay with PLD3 (human) was “binds” each time. On to PDIA3 (from UniProt P30101 25-505), for which the binding result with PLD4 (human) and with PLD3 (human) was “binds” throughout. TM9SF4 (from UniProt Q92544 24-642): the binding entry with PLD4 (human) and in the assay with PLD3 (human) was “binds” each time. On to TM9SF1 (from UniProt O15321 28-606), for which the binding result with PLD4 (human) and in the assay with PLD3 (human) was “binds” throughout.

B1: TM9SF3 (protein, UniProt Q9HD45 29-589)
chain: DEHEHTYQDKEEVVLWMNTVGPYHNRQETYKYFSLPFCVGSKKSISHYHETLGEALQGVELEFSGLDIKFKDDVMPATYCEIDLDKEKRDAFVYAIKNHYWYQMYIDDLPIWGIVGEADENGEDYYLWTYKKLEIGFNGNRIVDVNLTSEGKVKLVPNTKIQMSYSVKWKKSDVKFEDRFDKYLDPSFFQHRIHWFSIFNSFMMVIFLVGLVSMILMRTLRKDYARYSKEEEMDDMDRDLGDEYGWKQVHGDVFRPSSHPLIFSSLIGSGCQIFAVSLIVIIVAMIEDLYTERGSMLSTAIFVYAATSPVNGYFGGSLYARQGGRRWIKQMFIGAFLIPAMVCGTAFFINFIAIYYHASRAIPFGTMVAVCCICFFVILPLNLVGTILGRNLSGQPNFPCRVNAVPRPIPEKKWFMEPAVIVCLGGILPFGSIFIEMYFIFTSFWAYKIYYVYGFMMLVLVILCIVTVCVTIVCTYFLLNAEDYRWQWTSFLSAASTAIYVYMYSFYYYFFKTKMYGLFQTSFYFGYMAVFSTALGIMCGAIGYMGTSAFVRKIYTNVKID
In the case of B1, the binding result in the assay with PLD4 (human) and in the assay with PLD3 (human) was “binds” throughout.

B2: PLD4 (protein, UniProt Q96BZ4 1-506)
chain: T3 sequence
Turning to B2, the binding entry with PLD3 (human) was “binds”.

B3: TMX3 (protein, UniProt Q96JJ7 25-454)
chain: KGFVEDLDESFKENRNDDIWLVDFYAPWCGHCKKLEPIWNEVGLEMKSIGSPVKVGKMDATSYSSIASEFGVRGYPTIKLLKGDLAYNYRGPRTKDDIIEFAHRVSGALIRPLPSQQMFEHMQKRHRVFFVYVGGESPLKEKYIDAASELIVYTYFFSASEEVVPEYVTLKEMPAVLVFKDETYFVYDEYEDGDLSSWINRERFQNYLAMDGFLLYELGDTGKLVALAVIDEKNTSVEHTRLKSIIQEVARDYRDLFHRDFQFGHMDGNDYINTLLMDELTVPTVVVLNTSNQQYFLLDRQIKNVEDMVQFINNILDGTVEAQGGDSILQRLKRIVFDAKSTIVSIFKSSPLMGCFLFGLPLGVISIMCYGIYTADTDGGYIEERYEVSKSENENQEQIEESKEQQEPSSGGSVVPTVQEPKDVLEKKKD
In the case of B3, the binding entry with PLD4 (human) is listed as “binds”.

B4: PDIA4 (protein, UniProt P13667 21-645)
chain: VAGAEGPDEDSSNRENAIEDEEEEEEEDDDEEEDDLEVKEENGVLVLNDANFDNFVADKDTVLLEFYAPWCGHCKQFAPEYEKIANILKDKDPPIPVAKIDATSASVLASRFDVSGYPTIKILKKGQAVDYEGSRTQEEIVAKVREVSQPDWTPPPEVTLVLTKENFDEVVNDADIILVEFYAPWCGHCKKLAPEYEKAAKELSKRSPPIPLAKVDATAETDLAKRFDVSGYPTLKIFRKGRPYDYNGPREKYGIVDYMIEQSGPPSKEILTLKQVQEFLKDGDDVIIIGVFKGESDPAYQQYQDAANNLREDYKFHHTFSTEIAKFLKVSQGQLVVMQPEKFQSKYEPRSHMMDVQGSTQDSAIKDFVLKYALPLVGHRKVSNDAKRYTRRPLVVVYYSVDFSFDYRAATQFWRSKVLEVAKDFPEYTFAIADEEDYAGEVKDLGLSESGEDVNAAILDESGKKFAMEPEEFDSDTLREFVTAFKKGKLKPVIKSQPVPKNNKGPVKVVVGKTFDSIVMDPKKDVLIEFYAPWCGHCKQLEPVYNSLAKKYKGQKGLVIAKMDATANDVPSDRYKVEGFPTIYFAPSGDKKNPVKFEGGDRDLEHLSKFIEEHATKLSRTKEEL
With B4, the binding entry in the assay with PLD4 (human) and with PLD3 (human) was “binds” each time.

B5: PLD3 (protein, UniProt Q8IV08 1-490)
chain: T1 sequence
For B5, in the assay with PLD4 (human), the binding entry is listed as “binds”.

B6: PDIA6 (protein, UniProt Q15084 20-440)
chain: LYSSSDDVIELTPSNFNREVIQSDSLWLVEFYAPWCGHCQRLTPEWKKAATALKDVVKVGAVDADKHHSLGGQYGVQGFPTIKIFGSNKNRPEDYQGGRTGEAIVDAALSALRQLVKDRLGGRSGGYSSGKQGRSDSSSKKDVIELTDDSFDKNVLDSEDVWMVEFYAPWCGHCKNLEPEWAAAASEVKEQTKGKVKLAAVDATVNQVLASRYGIRGFPTIKIFQKGESPVDYDGGRTRSDIVSRALDLFSDNAPPPELLEIINEDIAKRTCEEHQLCVVAVLPHILDTGAAGRNSYLEVLLKLADKYKKKMWGWLWTEAGAQSELETALGIGGFGYPAMAAINARKMKFALLKGSFSEQGINEFLRELSFGRGSTAPVGGGAFPTIVEREPWDGRDGELPVEDDIDLSDVELDDLGKDEL
B6: the binding result with PLD4 (human) and with PLD3 (human) was “binds” throughout.

B7: ERLEC1 (protein, UniProt Q96DZ1 34-483)
chain: LPQLSDDIPFRVNWPGTEFSLPTTGVLYKEDNYVIMTTAHKEKYKCILPLVTSGDEEEEKDYKGPNPRELLEPLFKQSSCSYRIESYWTYEVCHGKHIRQYHEEKETGQKINIHEYYLGNMLAKNLLFEKEREAEEKEKSNEIPTKNIEGQMTPYYPVGMGNGTPCSLKQNRPRSSTVMYICHPESKHEILSVAEVTTCEYEVVILTPLLCSHPKYRFRASPVNDIFCQSLPGSPFKPLTLRQLEQQEEILRVPFRRNKEEDLQSTKEERFPAIHKSIAIGSQPVLTVGTTHISKLTDDQLIKEFLSGSYCFRGGVGWWKYEFCYGKHVHQYHEDKDSGKTSVVVGTWNQEEHIEWAKKNTARAYHLQDDGTQTVRMVSHFYGNGDICDITDKPRQVTVKLKCKESDSPHAVTVYMLEPHSCQYILGVESPVICKILDTADENGLLSLPN
B7: the binding result with PLD6 (human) was “binds”.
